For data set [1], the target named is T1, RsmE (Pseudomonas fluorescens CHA0) (UniProt P0DPC3).
T1 sequence (looked up, limits assumed): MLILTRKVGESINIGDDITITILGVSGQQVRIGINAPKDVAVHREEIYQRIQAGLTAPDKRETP
The experiment in a line: ITC. To be noted: ITC: 300 mM NaCl, 50 mM potassium phosphate pH 8.0, 298 K, recombinant protein, protein details: C-terminal His tag.

The target of data set [2] is T1, RsmE (Pseudomonas fluorescens CHA0). The experiment in a line: NMR. Particulars: 313 K, slow exchange, 300 uM and 2.7 mM reported for the two motifs, assignment only in figure; NMR: 30 mM NaCl, 50 mM potassium phosphate pH 7.2, 313 K; recombinant protein; protein details: C-terminal His tag.
Data set [3] shares this target. The experiment in a line: NMR structure. Particulars: slow exchange; NMR: 30 mM NaCl, 50 mM potassium phosphate pH 7.2, 313 K; recombinant protein; protein details: C-terminal His tag.
Where [4] appears, read: one-site fit, range, exact value in figure.

Construct, isoform or probe ends are uncertain for at least one entry. For part of these data: A weaker result is weaker than the reference pair of the same experiment. For part of these data: At least one verdict was read from the data and is not stated in words by the source. Protein sequences can lack the tags named with them.

On to GAGAAAGGAACACAGAGACUAGG [23nt-GGA76-78], for which the binding result in data set [1] (no stem, value in figure) is “binds more weakly”.
For GAGACCGGGACGUUGCCCGGUCUC [hcnA-GGA#2], the binding result in data set [2] is on record as “binds more weakly”.
For GAGCAUAGACGGCGGGACGCCGGGUA [hcnA-GGA#4], in data set [1] (intermediate-low affinity, value in figure), the binding result was “binds more weakly”.
Turning to GAGGGACCGGGUCGUUGCCCGGUCCC [hcnA-GGA#1], the binding result in data set [2] was “binds more weakly”.
In the case of GGGAUCGCAGGAAGCGAUCCC [RsmZ SL3], the binding result in data set [1] (setting [4]) is given as “binds”.
On to GGGUCAUCAGGACGAUGACCC [RsmZ SL4], for which the binding result in data set [1] (setting [4]) is “binds”.
Regarding GGGUGUCGACGGAUAGACACCC [RsmZ SL1], the binding result in data set [1] (one-site fit, range stated for SL1, SL3, SL4 and 9nt RNA, exact value in figure) is on record as “binds”.
As to UCAGGACAU [9nt-GGA39-41], the binding result in data set [3] and in data set [1] (setting [4]) was “binds” each time.

The values are drawn from publication PMC4005645, “Molecular basis for the wide range of affinity found in Csr/Rsm protein–RNA recognition”.
